Experimental data: the supplement of paper PMC3682954
Counter-ions that a name gives are not always drawn. ± gives the standard deviation of the averaged measurements. This is one part of the list. Many values rest on one well or one pass, so single values are uncertain.

Tested on: RAW 264.7
Experiment: HMGB1-induced TNF-alpha production relative to HMGB1-stimulated control; higher = more TNF-alpha secretion (less inhibition)
Conditions: stimulus: HMGB1 5 ug/ml, 18 h
[1] = compound concentration: 1 ug/ml

Row | SMILES | HMGB1-induced TNF-alpha production [1] | HMGB1-induced TNF-alpha production (compound concentration: 3 uM)
1 | CN1C[C@H](CO)C=C2c3cccc4[nH]cc(c34)C[C@H]21 [Lysergol] | 63.3% | –
2 | CC(N)Cc1c[nH]c2ccc(O)cc12 (stereo not drawn) [alpha-Methyl-5-hydroxytryptamine maleate] | – | 111%
3 | CN(N=O)c1cc(O)ccc1O [Dephostatin] | – | 69.1%
4 | CCN(CC)C(C)C(=O)c1ccccc1 (stereo not given) [Amfepramone hydrochloride] | – | 62.8%
5 | O[C@@H]1CCCC[C@H]1N1CCC(c2ccccc2)CC1 [L(-)-vesamicol hydrochloride] | – | 114%
6 | O=C1CCCN1CC#CCN1CCCC1 [Oxotremorine] | – | 98%
7 | O=C1CCCN1CC#CCN1CCCC1 [Oxotremorine sesquifumarate salt] | – | 106%
8 | C[C@]12N[C@H](Cc3ccccc31)c1ccccc12 [Dizocilpine maleate] | – | 76.7%
9 | C[N+]1([O-])[C@@H]2C[C@@H](OC(=O)[C@H](CO)c3ccccc3)C[C@H]1[C@@H]1O[C@@H]12 (stereo not given in full) [Scopolamin-N-oxide hydrobromide] | – | 109%
10 | NCCc1ccccn1 | – | 108%
11 | CC1(C)C(C=C(Cl)Cl)C1C(=O)OC(C#N)c1cccc(Oc2ccccc2)c1 (stereo not given) | – | 60.7%
12 | Oc1cc(Cl)ccc1Oc1ccc(Cl)cc1Cl | – | 61.7%
13 | Oc1cc(Cl)ccc1Oc1ccc(Cl)cc1Cl [Triclosan] | – | 86%
14 | c1cncc([C@@H]2CCCN2)c1 [Nornicotine] | – | 110%
15 | C[C@@]12N[C@@H](Cc3ccccc31)c1ccccc12 [(-)-MK 801 hydrogen maleate] | – | 108%
16 | C[C@@]12N[C@@H](Cc3ccccc31)c1ccccc12 [(-)-MK-801 hydrogen maleate] | – | 110%
17 | CC(CC(C(N)=O)(c1ccccc1)c1ccccc1)N(C)C (stereo not given) | – | 101%
18 | C[C@]12CC[C@H]3[C@@H](CCC4=CC(=O)CC[C@@]43C)[C@@H]1CC[C@H]2O [Epitestosterone] | 70.3% | –
19 | C#CCN[C@H](C)Cc1ccccc1 [R-(-)-Desmethyldeprenyl hydrochloride] | – | 102%
20 | CCCN(CCC)[C@@H]1CCc2cccc(O)c2C1 [R-(+)-8-Hydroxy-DPAT hydrobromide] | – | 97.6%
21 | OC[C@@H](O)[C@H]1O[C@@H]2O[C@H](C(Cl)(Cl)Cl)O[C@@H]2[C@H]1O | – | 82.5%
22 | C[N+]12CCC(CC1)C(OC(=O)C(O)(c1ccccc1)c1ccccc1)C2 (stereo not given) | – | 88%
23 | C[N+]12CCC(CC1)C(OC(=O)C(O)(c1ccccc1)c1ccccc1)C2 (stereo not given) [Clidinium bromide] | – | 122%
24 | CN1C(=O)CN=C(c2ccccc2)c2cc([N+](=O)[O-])ccc21 [Nimetazepam] | – | 109%
25 | CCCN1CCc2cc(O)cc3c2[C@H]1Cc1ccc(O)c(O)c1-3 [R(-)-2,10,11-Trihydroxy-N-propylnoraporphine hydrobromide] | – | 87.5%
26 | C=C(C)[C@@H]1[C@H]2OC(=O)[C@@H]1[C@]1(O)C[C@H]3OC34C(=O)O[C@H]2[C@@]41C.CC(C)(O)[C@@H]1[C@H]2OC(=O)[C@@H]1[C@]1(O)C[C@H]3OC34C(=O)O[C@H]2[C@@]41C (stereo not given in full) [Picrotoxin] | – | 111%
27 | CC(=O)OCC1=C(C(=O)O)N2C(=O)[C@@H](N)[C@H]2SC1 [Cephalosporanic acid, 7-amino] | – | 68.4%

Given with each value named: part of the list above.
CC(N)Cc1c[nH]c2ccc(O)cc12 (stereo not drawn) [alpha-Methyl-5-hydroxytryptamine maleate]
  HMGB1-induced TNF-alpha production (compound concentration: 3 uM): 111%
Oc1cc(Cl)ccc1Oc1ccc(Cl)cc1Cl
  HMGB1-induced TNF-alpha production (compound concentration: 3 uM): 61.7%
C[C@@]12N[C@@H](Cc3ccccc31)c1ccccc12 [(-)-MK-801 hydrogen maleate]
  HMGB1-induced TNF-alpha production (compound concentration: 3 uM): 110%
C=C(C)[C@@H]1[C@H]2OC(=O)[C@@H]1[C@]1(O)C[C@H]3OC34C(=O)O[C@H]2[C@@]41C.CC(C)(O)[C@@H]1[C@H]2OC(=O)[C@@H]1[C@]1(O)C[C@H]3OC34C(=O)O[C@H]2[C@@]41C (stereo not given in full) [Picrotoxin]
  HMGB1-induced TNF-alpha production (compound concentration: 3 uM): 111%

Next part

Row | SMILES | HMGB1-induced TNF-alpha production [1] | HMGB1-induced TNF-alpha production (compound concentration: 3 uM)
28 | C/C=C(/C)C(=O)O[C@H]1CC[C@@]2(C)[C@@H]3CC[C@H]4[C@]5(O)C[C@H](O)[C@@]6(O)[C@@H](CN7C[C@@H](C)CC[C@H]7[C@@]6(C)O)[C@]5(O)C[C@]42O[C@]13O | – | 89.6%
29 | CO[C@]12C[C@@H](COC(=O)c3cncc(Br)c3)CN(C)[C@@H]1Cc1cn(C)c3cccc2c13 [Nicergoline,] | 84.4% | –
30 | CO[C@]12C[C@@H](COC(=O)c3cncc(Br)c3)CN(C)[C@@H]1Cc1cn(C)c3cccc2c13 | – | 103%
31 | CO[C@]12C[C@@H](COC(=O)c3cncc(Br)c3)CN(C)[C@@H]1Cc1cn(C)c3cccc2c13 [Nicergoline] | – | 77.9 ± 26%
32 | C[C@H]1C(=O)O[C@@H]2CCN3CC=C(COC(=O)[C@](C)(O)[C@]1(C)O)[C@H]23 [Monocrotaline] | 71.2% | –
33 | COC(=O)C(c1ccccc1)C1CCCCN1 (stereo not given) | – | 79%
34 | O=CN1CCCC[C@@H]1[C@@H]1CC[C@@H]2CCCCN2C1 [Leontiformine HBr] | 73.2% | –
35 | CC1(C(=O)O)C2CCC(O2)C1(C)C(=O)O (stereo not given) [Cantharidic Acid] | – | 177%
36 | CC(C)(C)NCC(O)c1ccccc1Cl (stereo not given) [Tulobuterol] | – | 64.7 ± 7.6%
37 | CC(C)(C)NCC(O)c1ccccc1Cl (stereo not given) | – | 35.4%
38 | CC(C)(C)NCC(O)c1ccccc1Cl (stereo not given) [Tulobuterol hydrochloride] | – | 60.8%
39 | CN(C)C(=S)SSC(=S)N(C)C | – | 79.3%
40 | CC(C)C[C@H](CN)CC(=O)O | – | 89.7%
41 | C[C@]12Cc3c[nH]nc3C[C@@H]1CC[C@@H]1[C@@H]2CC[C@@]2(C)[C@H]1CC[C@]2(C)O [Stanozolol] | – | 82.3 ± 18%
42 | C[C@@H]1CC[C@H]2[C@@H](C)C(=O)O[C@@H]3O[C@@]4(C)CC[C@@H]1[C@]32OO4 | – | 69.6%
43 | C[C@@H]1CC[C@H]2[C@@H](C)C(=O)O[C@@H]3O[C@@]4(C)CC[C@@H]1[C@]32OO4 [Artemisinin] | 76% | 78.7 ± 28%
44 | CC[C@H]1[C@@H]2C[C@H]3[C@@H]4N(C)c5ccccc5[C@]45C[C@@H]([C@@H]2[C@H]5O)N3[C@@H]1O | – | 79.1%
45 | CS(=N)(=O)CC[C@H](N)C(=O)O (stereo partly drawn) [L-Methionine sulfoximine] | – | 100%
46 | CCC1(c2cccc(O)c2)CCCCN(C)C1 (stereo not given) [Meptazinol hydrochloride] | – | 90%
47 | Cc1ccc(O)cc1.Cc1cccc(O)c1.Cc1ccccc1O | – | 78.2%
48 | CCNC1(c2cccs2)CCCCC1=O (stereo not given) [Tiletamine hydrochloride] | – | 99.6%
49 | COc1cc([C@@H]2c3cc4c(cc3[C@H](O)[C@H]3COC(=O)[C@H]23)OCO4)cc(OC)c1OC | – | 171%
50 | COc1cc([C@@H]2c3cc4c(cc3[C@H](O)[C@H]3COC(=O)[C@H]23)OCO4)cc(OC)c1OC [Podophyllotoxin] | 188% | 119 ± 42%
51 | CNC(C)C(O)c1ccccc1 (stereo not given) | – | 85.4%
52 | CC(C)(C)C(=O)C(Oc1ccc(Cl)cc1)n1cncn1 (stereo not given) | – | 96.9%
53 | CC[C@H]1CN2CCc3cc(OC)c(OC)cc3[C@@H]2C[C@@H]1C[C@H]1NCCc2cc(OC)c(OC)cc21 [(+)-Emetine dihydrochloride hydrate] | -2.05% | –
54 | CC[C@H]1CN2CCc3cc(OC)c(OC)cc3[C@@H]2C[C@@H]1C[C@H]1NCCc2cc(OC)c(OC)cc21 | – | 10.8 ± 14%

Row | SMILES | HMGB1-induced TNF-alpha production [1] | HMGB1-induced TNF-alpha production (compound concentration: 3 uM)
55 | CC[C@H]1CN2CCc3cc(OC)c(OC)cc3[C@@H]2C[C@@H]1C[C@H]1NCCc2cc(OC)c(OC)cc21 [Emetine dihydrochloride hydrate] | – | -1.73%
56 | C[C@]12CC[C@H](O)CC1=CC[C@@H]1[C@@H]2CC[C@@]2(C)[C@H]1CC[C@]2(C)O | – | 102%
57 | CCN(C(C)=O)c1cccc(-c2ccnc3c(C#N)cnn23)c1 [Zaleplon] | – | 77.6 ± 37%
58 | NCCc1c[nH]c2ccc(O)cc12 [Serotonin hydrochloride] | 55% | 92.7 ± 1.2%
59 | Ic1ccccc1CNC1C2CCN(CC2)C1C(c1ccccc1)c1ccccc1 [L-703,606 oxalate salt hydrate] | – | 104%
60 | COc1ccc2c(c1)[nH]c1c(C)nccc12 [Harmine hydrochloride] | – | 89.7%
61 | COc1ccc2c(c1)[nH]c1c(C)nccc12 [Harmine] | 56.9% | 61.5%
62 | O=c1cccc2n1CC1CC2CN2CCCCC12 (stereo not given) [Thermopsine] | 74.9% | –
63 | CN1[C@@H](C[C@@H](O)c2ccccc2)CCC[C@H]1C[C@H](O)c1ccccc1 [Lobelanidine hydrochloride] | – | 116%
64 | CCCN(CCC)CCc1ccc(O)c(O)c1 [Dipropyldopamine hydrobromide] | – | 85.9%
65 | COc1ccc(C[C@H]2NC[C@H](O)[C@H]2OC(C)=O)cc1 [Anisomycin] | -5.04% | –
66 | NC(=O)C[S+]([O-])C(c1ccccc1)c1ccccc1 (stereo not given) [Modafinil] | – | 83.8 ± 15%
67 | NC(=O)C[S+]([O-])C(c1ccccc1)c1ccccc1 (stereo not given) | – | 74.6%
68 | C=C1[C@@H](C)[C@H]2[C@H](Cc3ccccc3)NC(=O)[C@]23OC(=O)/C=C/[C@H](O)CCC[C@@H](C)C/C=C/[C@H]3[C@@H]1O | – | 101%
69 | NCCc1c[nH]c2ccccc12 [Tryptamine hydrochloride] | – | 106%
70 | C[C@]12CC[C@H](O)C[C@H]1CC[C@@H]1[C@@H]2C[C@@H](O)[C@]2(C)[C@@H](C3=CC(=O)OC3)CC[C@]12O [Digoxigenin] | 79.8% | 107%
71 | Clc1ccc(N2C[C@H]3CC[C@@H](C2)N3)nn1 | – | 101%
72 | CC(=O)NC1CCSC1=O (racemic) [N-Acetyl-DL-homocysteine Thiolactone] | – | 73.9%
73 | CC(Cc1ccccc1)NCCC(c1ccccc1)c1ccccc1 (stereo not given) [Prenylamine lactate] | – | 33.1%
74 | CN1CCN(C(=O)OC2c3nccnc3C(=O)N2c2ccc(Cl)cn2)CC1 (stereo not given) [Zopiclone] | – | 125%
75 | CN1CCN(C(=O)OC2c3nccnc3C(=O)N2c2ccc(Cl)cn2)CC1 (stereo not given) | – | 74.7%
76 | Clc1ccc(C(OCCN2CCCCC2)c2ccccc2)cc1 (stereo not given) [Cloperastine hydrochloride] | – | 103%
77 | Clc1ccc(C(OCCN2CCCCC2)c2ccccc2)cc1 (stereo not given) | – | 83.6%
78 | C[C@@H](CO)NC(=O)[C@@H]1C=C2c3cccc4[nH]cc(c34)C[C@H]2N(C)C1 | – | 85.7%
79 | C[C@@H](CO)NC(=O)[C@@H]1C=C2c3cccc4[nH]cc(c34)C[C@H]2N(C)C1 [Ergonovine] | 72.8% | –
80 | Cc1c(N)nc([C@H](CC(N)=O)NC[C@H](N)C(N)=O)nc1C(=O)N[C@H](C(=O)N[C@H](C)[C@@H](O)[C@H](C)C(=O)N[C@H](C(=O)NCCc1nc(-c2nc(C(=O)NCCC[S+](C)C)cs2)cs1)[C@@H](C)O)[C@@H](OC1OC(CO)C(O)C(O)C1OC1OC(CO)C(O)C(OC(N)=O)C1O)c1cnc[nH]1 (stereo not given in full) [Bleomycin] | – | 136%
